Experimental data published in PubChem BioAssay AID1487 (National Center for Advancing Translational Sciences (NCATS), 2009).
Screen size: about 200,000 compounds; about 25 (0.01%) were called active. Inconclusive means that the source gave no clear call. Such entries were picked first, then a sample of the others. Calls come from the whole dose curve; as a rule, active = well fitted inhibition curve with a large enough effect in the signal ratio, with a control signal flat (not every such curve was filed as active); inconclusive = small, poorly fitted or top-dose-only effect, or effect the other way, or a change in a side signal; inactive = flat fitted curve, though single readings scatter; the % refers to the signal ratio. Potencies beside an inconclusive call are fits to weak or partial responses and may not hold up.

experiment: qHTS Assay for Modulators of Lamin A Splicing; conditions: HeLa LMNA splicing GFP/RFP minigene ratio, 48 h; ratio change, negative = inhibition: at 46.1 µM (top of the series) unless noted
How it was run: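 S3 HeLa stable clones carrying a lamin A-EGFP splicing minigene plus DsRed2 were seeded at 600 cells/well in Opti-MEM with 2% FBS, pin-dosed and incubated 48 h at 37°C. Acumen cytometry (488 nm) gave the GFP/RFP total-intensity ratio.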
% is set by controls: 0 for no effect and ±100 for the full control effect; potency is the fitted concentration of half-maximal effect.

SMILES	ratio change, negative = inhibition	Potency
Cn1c(=O)c2c(ncn2Cc2cc(-c3ccccc3)no2)n(C)c1=O	inactive	–
COc1ccc(-n2c(-c3ccc(Br)cc3)c[n+]3c2CCC3)cc1	inactive	–
Cc1ccc(OC(=O)C23CC4CC(CC(C4)C2)C3)c(C)n1	inactive	–
Cc1ccc(-c2nn3c(=O)cc(CN4CCN(C(=O)/C=C/c5ccccc5)CC4)nc3s2)cc1	inconclusive: 8.51% [at 46 µM]	–
O=C(COc1ccccc1)N1CCc2ccccc21	inconclusive: 16.4%	–
CCN(CC)S(=O)(=O)c1cccc(NC(=O)CSc2nc3ccccc3[nH]2)c1	inconclusive: -34.4% [at 46 µM]	–
COc1ccc(C(=O)c2c(C)c3ccccc3n2CC(O)CNC(C)C)cc1 (stereo not drawn)	inconclusive: -12%	–
COc1ccc2c(c1OC)C(=O)OC2Nc1nc(-c2ccccc2)cs1 (stereo not drawn)	–	inconclusive: 35.5 µM [cytotoxic, single point]
COC(=O)c1ccc(-c2ccc(Cl)cc2)nc1C	inactive	–
CCOCCCNC(=O)c1cc(Sc2cccc(Cl)c2)nc2ccccc12	inconclusive: -18.3% [at 46 µM]	–
Cc1ccc(-c2nc(=S)c3c(n2Cc2ccco2)CCCC3)cc1	inactive	–
Cc1cccc2sc(NC(=O)CSc3nc4ccccc4o3)nc12	inconclusive: -30%	–
Cc1ccc(OCCOc2ccc(Br)cc2)c([N+](=O)[O-])n1	–	inconclusive: 35.5 µM [fluorescent, single point]
Cc1ccc(CC(=O)Nc2ccc3c(c2)N(C)C(=O)c2ccccc2S3)cc1	–	inconclusive: 5.62 µM [inhibitor, partial curve]
CC(=O)N1CCN(c2ccc(NC(=O)COc3ccc(Cl)cc3Cl)cc2)CC1	–	inconclusive: 10 µM [falling, partial curve]
COC(=O)c1ccccc1NC(=O)C1COc2ccccc2O1 (stereo not drawn)	inactive	–
O=[N+]([O-])c1ccc(COc2ncnc3ccccc23)cc1	inconclusive: -7.16% [at 46 µM]	–
COCCn1c(SCc2csc(-c3ccccc3)n2)nc2ccccc21	–	inconclusive: 35.5 µM [fluorescent, single point]
COc1cccc(N/C(N)=N/c2nc(C(F)(F)F)cc(=O)[nH]2)c1	inactive	–
Fc1ccc(CN2CCc3nc(Nc4ccccc4)ncc3C2)cc1F	inconclusive: 1.21% [at 46 µM]	–
COc1ccc(CCNc2ncnc3c2cnn3-c2ccc(C)cc2)cc1	–	inconclusive: 20 µM [inhibitor, single point]

SMILES	ratio change, negative = inhibition	Potency
CC(/C=C/c1ccccc1F)=N\NC(=O)c1cccc(F)c1	inactive	–
CCOc1ccc(CSC2=NCCN2)cc1[N+](=O)[O-]	–	inconclusive: 35.5 µM [fluorescent, single point]
CC1(C)C2CCC1(CS(=O)(=O)NC1CCCC1)C(=O)C2 (stereo not drawn)	inconclusive: 13.8% [at 46 µM]	–
O=C(CSc1ccc(-c2ccc(Cl)cc2)nn1)N1CCCc2ccccc21	–	inconclusive: 35.5 µM [falling, single point]
O=C(NCCCN1CCOCC1)c1cccc(S(=O)(=O)Nc2cc(Cl)ccc2Cl)c1	inconclusive: -16.5% [at 46 µM]	–
CCSc1nc(-c2ccccc2)c(C#N)c(=O)[nH]1	inactive	–
COC(=O)C1=C(C(=O)OC)[C@@H]2Nc3ccccc3[C@@]23C[C@@H](C(=O)OC)N(C(=O)c2ccc(Br)cc2)C3=N1	inconclusive: -7.35% [at 9.22 µM]	–
Cc1ccc(S(=O)(=O)/N=C(/Nc2ccc3[nH]c(=O)[nH]c3c2)c2ccc(F)cc2)cc1	inconclusive: 19% [at 46 µM]	–
O=C(CNC(=O)C12CC3CC(CC(C3)C1)C2)N1CCN(S(=O)(=O)/C=C/c2ccccc2)CC1	–	inconclusive: 12.6 µM [falling, partial curve]
CSc1ccccc1NC(=O)c1cc(-c2cccnc2)nc2ccc(Br)cc12	inconclusive: 110% [at 46 µM]	–
CCOc1ccc(NC(=O)C(C)Oc2ccccc2C(=O)Nc2cccc(Cl)c2Cl)cc1 (stereo not drawn)	inconclusive: 34.6%	–
CCOc1cc(/C=N/n2c(C)nc3sc(C)c(C)c3c2=O)ccc1O	inconclusive: 7.09% [at 46 µM]	–
CCN(C(=O)CCCC(=O)N(CC)c1ccccc1)c1ccccc1	inconclusive: 4.05%	–
COc1ccc(C(=O)Nc2cc(OC)ccc2OC)cc1	inactive	–
CCc1ccc(C(=O)NNc2ccc(F)cc2)cc1	–	inconclusive: 7.08 µM [activator, partial curve]
O=C(C1CCCCC1)N1CC(=O)N2CCc3ccccc3C2C1 (stereo not drawn)	inconclusive: -8.25%	–
CC(=O)NC(c1ccc(C)cc1)c1cc([N+](=O)[O-])c2cccnc2c1O (stereo not drawn)	inconclusive: 161% [at 46 µM]	–
COC(=O)/C(N=Nc1cccc(C(F)(F)F)c1)=C(\C)O	inconclusive: 32%	–
NC(=O)c1cc2ccc(O)cc2oc1=NCc1ccccc1	inconclusive: 33.2%	–
CC(O)CO (stereo not drawn)	inconclusive: -12.1%	–
CCOC(=O)C(NC(=O)CCC(=O)Nc1ccc(S(N)(=O)=O)cc1)C(O)c1ccccc1 (stereo not drawn)	inconclusive: -5.66%	–

Record cards (already shown):
`O=C(NCCCN1CCOCC1)c1cccc(S(=O)(=O)Nc2cc(Cl)ccc2Cl)c1` is entered as ratio change, negative = inhibition: inconclusive: -16.5% [at 46 µM]
`COC(=O)C1=C(C(=O)OC)[C@@H]2Nc3ccccc3[C@@]23C[C@@H](C(=O)OC)N(C(=O)c2ccc(Br)cc2)C3=N1` is entered as ratio change, negative = inhibition: inconclusive: -7.35% [at 9.22 µM]
`CC(/C=C/c1ccccc1F)=N\NC(=O)c1cccc(F)c1` is entered as ratio change, negative = inhibition: inactive
`CCc1ccc(C(=O)NNc2ccc(F)cc2)cc1` is entered as Potency: inconclusive: 7.08 µM [activator, partial curve]

Remaining list, next part:

SMILES	ratio change, negative = inhibition	Potency
Cc1ccccc1CNc1ncnc2c1ncn2C1OC(CO)C(O)C1O (stereo not drawn)	inconclusive: -10.7%	–
CCOc1ccccc1CNC(=O)c1cnc2sc(N3CCCCCC3)nn2c1=O	inconclusive: -26% [at 46 µM]	–
CC(C)c1ccccc1NC(=O)c1ccc(CN(c2ccccc2)S(=O)(=O)c2ccccc2)cc1	inconclusive: -0.228%	–
O=C(NCCc1csc2nc(-c3ccc(F)cc3)nn12)c1cccc(C(F)(F)F)c1	inconclusive: -4.88% [at 46 µM]	–
COc1ccccc1CN(Cc1ccco1)c1cnc(S(C)(=O)=O)nc1C(=O)Nc1cc(C)ccc1C	inactive	–
Cc1nn(Cc2cccc(C(=O)Nc3ccn(Cc4ccccc4F)n3)c2)c(C)c1[N+](=O)[O-]	inactive	–
CC(C)(C)NCCOc1ccc(Br)cc1	inactive	–
CCc1ccc(S(=O)(=O)NCCc2csc3nc(-c4ccccc4)nn23)s1	inconclusive: -6.37% [at 46 µM]	–
Fc1ccc(Nc2ncncc2-c2ccoc2)cc1	inconclusive: -9.83%	–
CCNC(=S)N1CCNC(=O)C1CC(=O)OC (stereo not drawn)	inactive	–
Cc1cc(N2CCN(C(c3ccccc3)c3ccccc3)CC2)n2ncnc2n1	inconclusive: 9.2%	–
O=[N+]([O-])c1ccccc1S(=O)(=O)N1CCN(CC2CC3C=CC2C3)CC1 (stereo not drawn)	inconclusive: 14.5% [at 46 µM]	–
NNC(=O)CN1C(c2ccccc2)=Nc2ccc(Br)cc2C1c1ccccc1 (stereo not drawn)	inconclusive: -11.9% [at 46 µM]	–
COCCNC(=O)CN(c1ccc(C)cc1)S(=O)(=O)c1ccccc1	inactive	–
O=C(CCS(=O)(=O)c1cccs1)Nc1ccc(C(=O)NC2CCCC2)cc1	inconclusive: -32.5% [at 46 µM]	–
Cc1cccnc1Nc1nc(-c2ccc(O)cc2O)cs1	inconclusive: -20.2%	–
COc1ccc2cnnc(SCC(=O)Nc3ccc(C(=O)O)cc3)c2c1OC	inactive	–
COc1ccc(-n2c(SCc3ccc([N+](=O)[O-])cc3)nnc2-c2ccccc2)cc1	inconclusive: -34.8%	–
O=C(CSc1nnnn1Cc1ccccc1)NCCc1ccccc1	inactive	–
O=C(C[n+]1ccc(Cc2ccccc2)cc1)Nc1ccc([N+](=O)[O-])cc1Cl	inconclusive: 28.5% [at 46 µM]	–
CC(C)n1c(C(O)c2ccc3c(c2)OCO3)nc2ccccc21 (stereo not drawn)	inconclusive: -9.74%	–

SMILES	ratio change, negative = inhibition	Potency
CC(=O)Nc1cccc(-c2nnc(SCC(=O)N3CCCCC3)n2C)c1	inactive	–
N#Cc1c(-c2ccc(F)cc2)noc1N	inactive	–
Clc1ccc(-n2c(SC/C=C/c3ccccc3)nnc2-c2cccnc2)cc1	inactive	–
CC(C)(C)CC(C)(C)NC(=O)Nc1cccc([N+](=O)[O-])c1	inconclusive: 10.4% [at 46 µM]	–
COc1ccc2[nH]cc(CCNc3cc(-c4ccccc4C)ncn3)c2c1	inconclusive: -17.3%	–
CN1C(=O)CC(N2CCN(c3ncccn3)CC2)C1=O (stereo not drawn)	inactive	–
Cc1ccc(S(=O)(=O)NNC2CC(=O)N(c3ccc(Br)cc3)C2=O)cc1 (stereo not drawn)	inconclusive: -1.26% [at 9.22 µM]	–
COc1ccccc1N(C)S(=O)(=O)c1ccc(C(=O)OCC(=O)N(C(C)C)C(C)C)cc1	inconclusive: 16.7% [at 46 µM]	–
O=S(=O)(Cc1ccccc1)N1CCc2ccccc21	inactive	–
CCc1ccc2c(c1)N(C[C@H](C)CN(C)C)c1ccccc1S2	inconclusive: -4.35%	–
O=C(NC1CC(=O)N(c2cccc(F)c2)C1)C1CC1 (stereo not drawn)	inactive	–
C=CCn1c(SCC(=O)c2cccs2)nc2sc(C)c(C)c2c1=O	–	inconclusive: 35.5 µM [falling, single point]
CC1(C)CCCN(C(=O)c2coc(=O)c(Br)c2)C1	inconclusive: 3.74%	–
COc1cc(OC)c(N(C)C(=O)Cn2ncc3c([nH]c4ccccc43)c2=O)cc1Cl	inconclusive: -27.9% [at 46 µM]	–
Cc1onc(-c2c(F)cccc2Cl)c1C(=O)N[C@@H]1C(=O)N2[C@H]1SC(C)(C)[C@H]2C(=O)O	inconclusive: -7.04%	–
Cc1ccc(-c2cccc(C(=O)NCc3ccccc3)n2)c2ccccc12	inconclusive: -47%	–
COc1cc(/C=C/C(=O)OCC(=O)Nc2ccc(NC(C)=O)cc2)cc(S(=O)(=O)N2CCc3ccccc32)c1OC	inactive	–
COc1ccc(-c2cn3c4c(sc3n2)CCCC4)cc1	inactive	–
Cc1csc2nc(-c3cccc(NC(=O)c4ccccc4Cl)c3)cn12	inconclusive: -15.9% [at 46 µM]	–
CCC(=O)N1CCN(c2nc(-c3ccc(Cl)cc3)cs2)CC1	–	inconclusive: 35.5 µM [fluorescent, single point]
